Data source: PubChem BioAssay AID493246 (Drosophila RNAi Screening Center, 2011)
The screen tested about 21,000 reagents; below is a random part of those that have a named target and a result. Of all reagents, 429 (2%) are marked active. 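Values are raw and not normalised between plates; calls rest on per-plate z-scores that were not deposited.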 Reagents against one gene are numbered here. Names joined by + are all predicted targets of the reagent. Not stated in the record: the amount of reagent, the time to read-out.

Screen: 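Genome-wide search for dsRNAs that reduce cell number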 (primary screen)
System: Drosophila Kc and S2R+ cells
Reagent: long dsRNA against Drosophila genes
Measured: 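Raw, unnormalised count of remaining cells in each well; per-plate z-scores of cell number underlie the calls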
Scale: Kc cell number and S2R+ cell number: higher = more cells remaining
Active means: 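Active when the per-plate z-score of cell number is 3 or more in the direction of fewer cells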

gene knocked down	reagent	Kc cell number, rep 1	Kc cell number, rep 2	S2R+ cell number, rep 1	S2R+ cell number, rep 2	Call
CG4622	1	1.31e6	1.40e6	1.19e6	1.25e6	inactive
Neurl4 (Neuralized E3 ubiquitin protein ligase 4)	1	1.48e6	1.55e6	1.19e6	1.22e6	inactive
CG33296	1	1.37e6	1.44e6	9.09e5	1.04e6	inactive
CG8204	1	1.71e6	1.70e6	1.34e6	1.53e6	inactive
PNPase (Polynucleotide phosphorylase)	1	5.13e5		8.18e5		inactive
CG4467	1	1.58e6	1.74e6	1.04e6	1.14e6	inactive
SerRS-m (Seryl-tRNA synthetase, mitochondrial)	1	1.23e6	1.30e6	1.23e6	1.31e6	inactive
Gmppa (GDP-mannose pyrophosphorylase A)	1	1.70e6	1.75e6	1.30e6	1.54e6	inactive
Frq1 (Frequenin 1)	1	1.51e6	1.51e6	1.09e6	1.14e6	inactive
Or74a (Odorant receptor 74a)	1	1.46e6	1.38e6	1.09e6	1.29e6	inactive
su(w[a]) (suppressor of white-apricot)	1	5.17e5		8.01e5		inactive
YL-1	1	1.72e6	1.77e6	1.17e6	1.33e6	inactive
CG13616	1	1.60e6	1.69e6	1.04e6	1.17e6	inactive
bt (bent)	1	4.93e5		8.42e5		inactive
bt (bent)	2	4.43e5		7.27e5		inactive
Rab9D + Rab9Fa + Rab9E	1	1.53e6	1.48e6	1.07e6	1.13e6	inactive
CG15456	1	1.46e6	1.50e6	1.01e6	1.09e6	inactive
GlcAT-P (Glucuronyltransferase P)	1	1.44e6	1.53e6	1.21e6	1.01e6	inactive
GlcAT-P (Glucuronyltransferase P)	2	1.49e6	1.58e6	1.09e6	1.17e6	inactive
Spc25	1	1.45e6	1.21e6	8.45e5	7.01e5	inactive
PGRP-LB (Peptidoglycan recognition protein LB)	1	1.47e6	1.51e6	1.09e6	1.19e6	inactive
Nadsyn (NAD synthetase)	1	5.92e5		9.47e5		inactive
CG31321	1	1.38e6	1.59e6	1.05e6	1.14e6	inactive
Cpsf73 (Cleavage and polyadenylation specificity factor 73)	1	1.67e6	1.76e6	1.12e6	1.21e6	inactive
mid (midline)	1	1.56e6	1.66e6	1.07e6	1.18e6	inactive
CG17806	1	1.54e6	1.62e6	1.19e6	1.25e6	inactive
CARPA (Carbonic anhydrase-related protein A)	1	1.56e6	1.49e6	1.11e6	1.24e6	inactive
TwdlP (TweedleP)	1	1.53e6	1.60e6	1.03e6	1.15e6	inactive
CG5391	1	1.35e6	1.36e6	1.09e6	1.19e6	inactive
mTerf3 (mitochondrial transcription termination factor 3)	1	1.53e6	1.54e6	1.28e6	1.34e6	inactive
CG8155	1	1.25e6	1.27e6	9.37e5	8.54e5	inactive
mei-41 (meiotic 41)	1	1.41e6	1.43e6	1.02e6	1.14e6	inactive
Osi19 (Osiris 19)	1	1.62e6	1.78e6	1.21e6	1.33e6	inactive
Rev1 (DNA polymerase Rev1)	1	1.45e6	1.51e6	1.27e6	1.18e6	inactive
ctrip (circadian trip)	1	1.51e6	1.54e6	1.09e6	1.21e6	inactive
ctrip (circadian trip)	2	1.38e6	1.44e6	1.09e6	1.22e6	inactive
Cyp6w1 (Cytochrome P450 6w1)	1	1.38e6	1.45e6	1.11e6	1.17e6	inactive
CG9896	1	6.70e5		8.67e5		inactive
CG9896	2	1.69e6	1.73e6	1.28e6	1.43e6	inactive

Single entries from above.
Value of CG8204 under “Kc cell number, rep 1”: 1.71e6
PGRP-LB (Peptidoglycan recognition protein LB), S2R+ cell number, rep 1 → 1.09e6
CG9896 #2, Kc cell number, rep 1: 1.69e6
Osi19 (Osiris 19), Call → inactive
Under “Kc cell number, rep 2”, Cyp6w1 (Cytochrome P450 6w1) has 1.45e6
Rab9D + Rab9Fa + Rab9E, Kc cell number, rep 2: 1.48e6

The list goes on.
gene knocked down	reagent	Kc cell number, rep 1	Kc cell number, rep 2	S2R+ cell number, rep 1	S2R+ cell number, rep 2	Call
gudu	1	1.78e6	1.65e6	1.22e6	1.30e6	inactive
CG3288	1	1.35e6	1.47e6	1.30e6	1.36e6	inactive
slam (slow as molasses)	1	1.56e6	1.74e6	1.24e6	1.43e6	inactive
CG1791	1	5.55e5		8.89e5		inactive
Sec3 (Secretory 3)	1	1.45e6	1.44e6	1.20e6	1.25e6	inactive
CG33170	1	1.55e6	1.67e6	1.33e6	1.48e6	inactive
CG33060	1	1.30e6	1.46e6	1.23e6	1.28e6	inactive
Or33a (Odorant receptor 33a)	1	1.57e6	1.70e6	1.19e6	1.38e6	inactive
eIF2Bepsilon (eukaryotic translation initiation factor 2B subunit epsilon)	1	5.18e5		7.74e5		inactive
CG9626	1	1.44e6	1.57e6	1.25e6	1.30e6	inactive
CG12766	1	1.60e6	1.47e6	1.02e6	1.20e6	inactive
Rgk2 (Rad, Gem/Kir family member 2)	1	1.64e6	1.64e6	1.15e6	1.27e6	inactive
Lcp1Psi (Larval cuticle protein 1 pseudogene)	1	1.60e6	1.72e6	1.03e6	1.20e6	inactive
CG6893	1	1.64e6	1.84e6	1.49e6	1.59e6	inactive
CG32655	1	1.27e6	1.43e6	1.02e6	1.09e6	inactive
snoRNA:Me28S-C3227a + snoRNA:Me18S-A1061 + snoRNA:Me28S-C3227b + 7 more	1	1.42e6	1.51e6	9.64e5	1.14e6	inactive
JMJD6 (Jumonji domain containing 6)	1	1.71e6	1.90e6	1.16e6	1.15e6	inactive
Dhc16F (Dynein heavy chain at 16F)	1	1.41e6	1.48e6	1.06e6	1.15e6	inactive
nac (neuronally altered carbohydrate)	1	1.63e6	1.84e6	1.32e6	1.42e6	inactive
CG3038	1	1.49e6	1.51e6	1.06e6	1.18e6	inactive
CG3184	1	5.37e5		8.67e5		inactive
dbo (diablo)	1	1.33e6	1.43e6	1.27e6	1.29e6	inactive
CG13842	1	1.75e6	1.73e6	1.05e6	1.16e6	inactive
Ir7b (Ionotropic receptor 7b)	1	1.41e6	1.40e6	1.04e6	1.13e6	inactive
Srg3 (Sting-regulated gene 3)	1	1.91e6	1.96e6	1.29e6	1.48e6	inactive
Srg3 (Sting-regulated gene 3)	2	1.54e6	1.81e6	1.22e6	1.26e6	inactive
ND-B14.5A (NADH dehydrogenase (ubiquinone) B14.5 A subunit)	1	1.59e6	1.56e6	1.07e6	1.25e6	inactive
zyd (zydeco)	1	1.54e6	1.59e6	1.09e6	1.21e6	inactive
Gr22b (Gustatory receptor 22b)	1	1.55e6	1.87e6	1.18e6	1.19e6	inactive
CG8312	1	1.59e6	1.65e6	1.23e6	1.36e6	inactive
fan (farinelli)	1	1.29e6	1.28e6	1.25e6	1.32e6	inactive
Srp54 (Splicing regulatory protein 54)	1	9.37e5	1.01e6	1.03e6	1.10e6	inactive
Samtor (S-adenosylmethionine sensor upstream of TORC1)	1	1.44e6	1.51e6	1.19e6	1.33e6	inactive
Ncc69 (sodium chloride cotransporter 69)	1	1.50e6	1.53e6	1.31e6	1.29e6	inactive
Ncc69 (sodium chloride cotransporter 69)	2	1.91e6	2.09e6	1.31e6	1.42e6	inactive
CLS (Cardiolipin synthase)	1	1.58e6	1.57e6	9.59e5	1.08e6	inactive
